## Cleaved PARP after 72 h of treatment

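Human melanoma cell lines in 1,536-well plates were treated with two drugs together for 72 h, then fixed, stained and imaged. Each value is the cleaved-PARP-positive fraction of nuclei relative to DMSO-treated wells, in %, so that 100 equals the control and higher values mean more apoptosis. Concentrations were fixed for each drug; these are the higher of two levels. The file gives one value for each pair and line, without errors, so small differences may be noise. Basal and induced levels differ widely between cell lines.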 This is part of the screen, not chosen by result.

Compounds and concentrations:
darinaparsin, 2 µM: C[As](C)SC[C@H](NC(=O)CC[C@H](N)C(=O)O)C(=O)NCC(=O)O
SU6656, 2 µM: CN(C)S(=O)(=O)c1ccc2c(c1)/C(=C/c1cc3c([nH]1)CCCC3)C(=O)N2
bortezomib, 0.005 µM: CC(C)C[C@H](NC(=O)[C@H](Cc1ccccc1)NC(=O)c1cnccn1)B(O)O
decitabine, 0.5 µM: Nc1ncn([C@H]2C[C@H](O)[C@@H](CO)O2)c(=O)n1
VX-702, 2 µM: NC(=O)c1ccc(N(C(N)=O)c2c(F)cccc2F)nc1-c1ccc(F)cc1F
vorinostat, 0.4 µM: O=C(CCCCCCC(=O)Nc1ccccc1)NO
L-779450, 1 µM: Oc1cc(-c2nc(-c3ccccc3)[nH]c2-c2ccncc2)ccc1Cl

Pair	SK-MEL-28	IST-MEL1	C32	COLO 800	COLO 792	WM1716
darinaparsin and VX-702	288	101	131	122	49.9	102
decitabine and SU6656	186	62.9	166	153	126	219
VX-702 and L-779450	124	85.6	98.5	115	41.3	47.4
vorinostat and VX-702	84.2	101	368	94.0	161	18.7
vorinostat and bortezomib	163	830	4940	227	608	9940
L-779450 and SU6656	108	134	143	91.6	160	152
L-779450 and darinaparsin	111	121	129	122	97.2	208
L-779450 and vorinostat	261	123	314	462	45.3	214
darinaparsin and SU6656	251	825	67.9	481	77.2	51.8
bortezomib and L-779450	432	542	562	159	264	14300
L-779450 and decitabine	94.3	248	89.3	67.2	64.9	422
bortezomib and decitabine	249	1180	317	36.2	695	7510
darinaparsin and bortezomib	877	971	1560	53.9	165	12200
vorinostat and darinaparsin	193	33.9	144	139	138	161
decitabine and VX-702	141	72.9	127	53.7	88.1	75.5
vorinostat and decitabine	190	100	37.4	152	279	462
SU6656 and bortezomib	118	875	2390	541	383	11600
vorinostat and SU6656	163	158	90.6	74.9	203	60.6
VX-702 and bortezomib	531	759	1040	76.2	445	16100
SU6656 and VX-702	48.6	275	118	150	130	205
decitabine and darinaparsin	79.3	246	105	63.7	118	129

For reference, 2 entries once more:

| Pair | SK-MEL-28 | IST-MEL1 | C32 | COLO 800 | COLO 792 | WM1716 |
|---|---|---|---|---|---|---|
| bortezomib and L-779450 | 432 | 542 | 562 | 159 | 264 | 14300 |
| decitabine and SU6656 | 186 | 62.9 | 166 | 153 | 126 | 219 |

From a melanoma drug combination screen (doi:10.1371/journal.pone.0140310); values rounded.